From article PMC11169542 (Nature Communications, 2024)
End groups of sequences in plain letters are not given here.

Assay: peptide made by a vendor
Conditions: whole synthesis

For CDAGRKQKC, the “purity (crude or final not stated)” value was 95%.
